The results in this text go back to paper PMC10783502.

Chains of the proteins cited; added tags and fusions are not shown. Lines headed by an entry give the natural chain unless they say otherwise; changes in a name come on top.
UniProt Q9ZU66: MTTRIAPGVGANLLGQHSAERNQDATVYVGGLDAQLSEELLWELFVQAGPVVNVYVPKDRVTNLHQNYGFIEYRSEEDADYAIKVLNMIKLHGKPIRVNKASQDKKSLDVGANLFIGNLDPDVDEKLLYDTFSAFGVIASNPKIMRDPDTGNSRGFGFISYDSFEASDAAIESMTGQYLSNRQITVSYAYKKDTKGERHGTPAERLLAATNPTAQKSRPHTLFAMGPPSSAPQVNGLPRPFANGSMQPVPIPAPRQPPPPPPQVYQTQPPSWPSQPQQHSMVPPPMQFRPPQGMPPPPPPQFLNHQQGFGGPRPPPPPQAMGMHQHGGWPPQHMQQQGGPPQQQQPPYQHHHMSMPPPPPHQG

These are yes or no findings as the source states them, for the method shown. Binding seen in cells or lysates may run through a third protein. A yes stands for co-enrichment or nearness to the bait. Other partners may have been found.

The experiment concerns the target MYC-JANUS (Arabidopsis) (UniProt Q9ZU66). The experiment is described as follows: affinity purification with mass spectrometry; MYC-JANUS immunoprecipitated with anti-MYC antibodies from transgenic plants harboring p35S::MYC-JANUS; same IP from Col-0 as negative control.

B1: SERRATE (protein, UniProt Q9ZVD0 1-720)
chain: MADVNLPPSDSVDNRLPEKSTSSSPPPPPPSSSLPQQEQEQDQQQLPLRRERDSRERRDERDIERPPPNRRERDRSPLPPPRRDYKRRPSLSPPPPYRDRRHSPPQRRSPPQKRYRRDDNGYDGRRGSPRGGYGPPDRRFGYDHGGGYDREMGGRPGYGDERPHGRFMGRYQDWEGGRGGYGDASNSGNPQRDGLMSYKQFIQELEDDILPSEAERRYQEYKSEYITTQKRAFFNTHKEEDWLKNKYHPTNLLSVIERRNDLAQKVAKDFLLDLQSGTLDLGPAVTALNKSGRTSEPNSEDEAAGVGKRKRHGMGGAKENELLSAAPKAPSFTSDPKRILTDVEQTQALVRKLDSEKKIEENVLQGSETEKSGREKLHSGSTGPVVIIRGLTSVKGLEGVELLDTLVTYLWRVHGLDYYGKVETNEAKGLRHVRAEGKVSDAKGDENESKFDSHWQERLKGQDPLEVMAAKEKIDAAATEALDPHVRKIRDEKYGWKYGCGAKGCTKLFHAAEFVYKHLKLKHTELVTELTTKVREELYFQNYMNDPNAPGGQPATQQSGPRDRPIRRKPSMENRLRDDRGGRRERDGRANGNDRNDRSEDQQRGDNDGGNPGEVGYDAFGGQGGVHVPPFLSDINPPPMLMPVPGAGPLGPFVPAPPEVAMQMFRDPSGPNPPFEGSGRGGPAPFLLSPAFRQDPRRLRSYQDLDAPEEEVTVIDYRSL
On to B1, for which the binding result was “binds”.

B2: PRL1 (protein, UniProt Q42384 1-486)
chain: MPAPTTEIEPIEAQSLKKLSLKSLKRSLELFSPVHGQFPPPDPEAKQIRLSHKMKVAFGGVEPVVSQPPRQPDRINEQPGPSNALSLAAPEGSKSTQKGATESAIVVGPTLLRPILPKGLNYTGSSGKSTTIIPANVSSYQRNLSTAALMERIPSRWPRPEWHAPWKNYRVIQGHLGWVRSVAFDPSNEWFCTGSADRTIKIWDVATGVLKLTLTGHIEQVRGLAVSNRHTYMFSAGDDKQVKCWDLEQNKVIRSYHGHLSGVYCLALHPTLDVLLTGGRDSVCRVWDIRTKMQIFALSGHDNTVCSVFTRPTDPQVVTGSHDTTIKFWDLRYGKTMSTLTHHKKSVRAMTLHPKENAFASASADNTKKFSLPKGEFCHNMLSQQKTIINAMAVNEDGVMVTGGDNGSIWFWDWKSGHSFQQSETIVQPGSLESEAGIYAACYDNTGSRLVTCEADKTIKMWKEDENATPETHPINFKPPKEIRRF
As for B2, the binding result is “binds”.

B3: CDC5 (protein, UniProt P92948 1-844)
chain: MRIMIKGGVWKNTEDEILKAAVMKYGKNQWARISSLLVRKSAKQCKARWYEWLDPSIKKTEWTREEDEKLLHLAKLLPTQWRTIAPIVGRTPSQCLERYEKLLDAACTKDENYDAADDPRKLRPGEIDPNPEAKPARPDPVDMDEDEKEMLSEARARLANTRGKKAKRKAREKQLEEARRLASLQKRRELKAAGIDGRHRKRKRKGIDYNAEIPFEKRAPAGFYDTADEDRPADQVKFPTTIEELEGKRRADVEAHLRKQDVARNKIAQRQDAPAAILQANKLNDPEVVRKRSKLMLPPPQISDHELEEIAKMGYASDLLAENEELTEGSAATRALLANYSQTPRQGMTPMRTPQRTPAGKGDAIMMEAENLARLRDSQTPLLGGENPELHPSDFTGVTPRKKEIQTPNPMLTPSMTPGGAGLTPRIGLTPSRDGSSFSMTPKGTPFRDELHINEDMDMHESAKLERQRREEARRSLRSGLTGLPQPKNEYQIVAQPPPEESEEPEEKIEEDMSDRIAREKAEEEARQQALLKKRSKVLQRDLPRPPAASLAVIRNSLLSADGDKSSVVPPTPIEVADKMVREELLQLLEHDNAKYPLDDKAEKKKGAKNRTNRSASQVLAIDDFDENELQEADKMIKEEGKFLCVSMGHENKTLDDFVEAHNTCVNDLMYFPTRSAYELSSVAGNADKVAAFQEEMENVRKKMEEDEKKAEHMKAKYKTYTKGHERRAETVWTQIEATLKQAEIGGTEVECFKALKRQEEMAASFRKKNLQEEVIKQKETESKLQTRYGNMLAMVEKAEEIMVGFRAQALKKQEDVEDSHKLKEAKLATGEEEDIAIAMEASA
In the case of B3, the binding result is listed as “binds”.
